Measurements published in publication PMC8608314.

Protein sequences, listed by entry. Tags and fused reporters are not part of them. Lines headed by an entry give the natural chain unless they say otherwise; changes in a name come on top.
UniProt Q38DR9: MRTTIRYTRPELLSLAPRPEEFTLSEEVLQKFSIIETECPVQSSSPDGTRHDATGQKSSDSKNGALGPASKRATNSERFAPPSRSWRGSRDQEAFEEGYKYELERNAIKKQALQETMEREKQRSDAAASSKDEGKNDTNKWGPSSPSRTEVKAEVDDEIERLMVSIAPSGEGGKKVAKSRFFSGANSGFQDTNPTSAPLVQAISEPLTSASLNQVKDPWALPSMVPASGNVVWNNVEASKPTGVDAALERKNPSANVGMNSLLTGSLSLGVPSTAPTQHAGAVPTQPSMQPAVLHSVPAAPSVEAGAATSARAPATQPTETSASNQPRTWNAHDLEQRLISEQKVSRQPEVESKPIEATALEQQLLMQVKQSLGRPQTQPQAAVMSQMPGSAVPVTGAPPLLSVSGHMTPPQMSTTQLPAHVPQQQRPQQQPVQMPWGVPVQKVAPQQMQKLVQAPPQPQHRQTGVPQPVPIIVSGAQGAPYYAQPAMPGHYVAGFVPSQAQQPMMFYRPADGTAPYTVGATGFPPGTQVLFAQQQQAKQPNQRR

Assays:
[1] = molecular target: T1, TUT3 two-hybrid fusion (Trypanosoma brucei) (UniProt Q6B9Y8); test: two-hybrid; Matchmaker Yeast Two-Hybrid System (Clontech), pGBKT7 and pGADT7 plasmids co-transformed pairwise into AH109; growth on plates lacking Trp, Leu, His and Ade indicates interaction
T1 sequence: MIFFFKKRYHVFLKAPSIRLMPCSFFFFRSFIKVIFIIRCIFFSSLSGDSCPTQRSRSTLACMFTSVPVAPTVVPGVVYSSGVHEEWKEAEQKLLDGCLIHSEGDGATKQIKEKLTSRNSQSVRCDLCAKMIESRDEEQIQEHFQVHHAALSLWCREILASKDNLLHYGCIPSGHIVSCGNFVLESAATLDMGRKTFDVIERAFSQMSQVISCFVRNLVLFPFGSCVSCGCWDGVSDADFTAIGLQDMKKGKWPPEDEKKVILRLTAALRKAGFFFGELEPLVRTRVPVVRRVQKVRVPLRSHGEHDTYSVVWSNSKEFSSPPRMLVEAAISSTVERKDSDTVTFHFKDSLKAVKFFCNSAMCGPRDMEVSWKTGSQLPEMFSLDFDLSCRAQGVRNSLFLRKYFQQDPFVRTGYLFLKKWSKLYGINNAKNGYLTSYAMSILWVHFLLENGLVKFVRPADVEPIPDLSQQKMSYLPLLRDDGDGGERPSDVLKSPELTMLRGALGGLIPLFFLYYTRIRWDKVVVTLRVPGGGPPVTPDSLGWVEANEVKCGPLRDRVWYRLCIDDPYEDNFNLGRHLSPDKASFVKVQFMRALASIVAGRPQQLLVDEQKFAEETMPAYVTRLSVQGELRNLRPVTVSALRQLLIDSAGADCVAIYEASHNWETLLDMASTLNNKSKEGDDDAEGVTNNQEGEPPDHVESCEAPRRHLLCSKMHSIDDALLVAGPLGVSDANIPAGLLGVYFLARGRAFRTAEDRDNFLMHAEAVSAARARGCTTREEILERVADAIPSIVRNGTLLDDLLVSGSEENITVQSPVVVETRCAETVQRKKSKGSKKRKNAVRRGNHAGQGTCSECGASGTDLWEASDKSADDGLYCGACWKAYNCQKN

[2] = molecular target: T2, TUT3-myc (Trypanosoma brucei) (UniProt Q6B9Y8); test: co-IP; bloodstream forms; pull-down of V5-tagged 4EIP with blot for TUT3-myc, and pull-down of myc-tagged TUT3 with blot for 4EIP-V5; in absence or presence of RNase A
T2 sequence: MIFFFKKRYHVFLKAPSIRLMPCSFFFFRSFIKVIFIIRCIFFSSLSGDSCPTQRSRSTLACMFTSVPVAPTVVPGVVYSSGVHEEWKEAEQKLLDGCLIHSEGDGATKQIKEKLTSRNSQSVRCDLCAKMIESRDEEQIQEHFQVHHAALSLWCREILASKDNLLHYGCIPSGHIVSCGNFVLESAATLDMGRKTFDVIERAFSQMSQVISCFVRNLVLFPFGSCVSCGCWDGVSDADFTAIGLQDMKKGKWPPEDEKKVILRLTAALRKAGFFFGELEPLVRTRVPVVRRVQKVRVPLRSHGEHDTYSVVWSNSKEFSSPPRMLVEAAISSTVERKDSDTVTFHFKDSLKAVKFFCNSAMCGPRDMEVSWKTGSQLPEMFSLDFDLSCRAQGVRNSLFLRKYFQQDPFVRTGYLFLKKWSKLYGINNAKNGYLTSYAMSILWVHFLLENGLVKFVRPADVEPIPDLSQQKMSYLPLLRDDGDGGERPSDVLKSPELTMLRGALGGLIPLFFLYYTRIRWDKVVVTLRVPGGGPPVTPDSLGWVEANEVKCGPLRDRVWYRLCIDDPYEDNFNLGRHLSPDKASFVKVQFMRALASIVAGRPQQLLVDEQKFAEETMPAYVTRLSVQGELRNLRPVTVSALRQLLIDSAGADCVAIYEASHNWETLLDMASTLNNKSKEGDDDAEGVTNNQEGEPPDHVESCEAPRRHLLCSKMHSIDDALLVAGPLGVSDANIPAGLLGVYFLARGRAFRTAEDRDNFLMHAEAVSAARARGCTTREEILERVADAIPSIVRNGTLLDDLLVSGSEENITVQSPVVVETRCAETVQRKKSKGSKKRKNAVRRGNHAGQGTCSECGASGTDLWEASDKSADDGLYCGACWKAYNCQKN

[3] = molecular target: V5-tagged 4EIP (Trypanosoma brucei) (UniProt Q38DR9); test: as above
[4] = molecular target: 4EIP two-hybrid fusion (Trypanosoma brucei) (UniProt Q38DR9); test: two-hybrid; Matchmaker Yeast Two-Hybrid System (Clontech), pGBKT7 and pGADT7 plasmids co-transformed pairwise into AH109; growth on plates lacking Trp, Leu, His and Ade indicates interaction

- binding [1]: binds
Molecule: 4EIP two-hybrid fusion (from UniProt Q38DR9)

Molecule: T. brucei homolog of Dis3L2, two-hybrid fusion (Trypanosoma brucei) (enzyme)
- binding [1]: no binding

- binding [2]: binds
Molecule: V5-tagged 4EIP (from UniProt Q38DR9)

- binding [3]: binds
B1: TUT3-myc (enzyme, UniProt Q6B9Y8 1-889)
chain: MIFFFKKRYHVFLKAPSIRLMPCSFFFFRSFIKVIFIIRCIFFSSLSGDSCPTQRSRSTLACMFTSVPVAPTVVPGVVYSSGVHEEWKEAEQKLLDGCLIHSEGDGATKQIKEKLTSRNSQSVRCDLCAKMIESRDEEQIQEHFQVHHAALSLWCREILASKDNLLHYGCIPSGHIVSCGNFVLESAATLDMGRKTFDVIERAFSQMSQVISCFVRNLVLFPFGSCVSCGCWDGVSDADFTAIGLQDMKKGKWPPEDEKKVILRLTAALRKAGFFFGELEPLVRTRVPVVRRVQKVRVPLRSHGEHDTYSVVWSNSKEFSSPPRMLVEAAISSTVERKDSDTVTFHFKDSLKAVKFFCNSAMCGPRDMEVSWKTGSQLPEMFSLDFDLSCRAQGVRNSLFLRKYFQQDPFVRTGYLFLKKWSKLYGINNAKNGYLTSYAMSILWVHFLLENGLVKFVRPADVEPIPDLSQQKMSYLPLLRDDGDGGERPSDVLKSPELTMLRGALGGLIPLFFLYYTRIRWDKVVVTLRVPGGGPPVTPDSLGWVEANEVKCGPLRDRVWYRLCIDDPYEDNFNLGRHLSPDKASFVKVQFMRALASIVAGRPQQLLVDEQKFAEETMPAYVTRLSVQGELRNLRPVTVSALRQLLIDSAGADCVAIYEASHNWETLLDMASTLNNKSKEGDDDAEGVTNNQEGEPPDHVESCEAPRRHLLCSKMHSIDDALLVAGPLGVSDANIPAGLLGVYFLARGRAFRTAEDRDNFLMHAEAVSAARARGCTTREEILERVADAIPSIVRNGTLLDDLLVSGSEENITVQSPVVVETRCAETVQRKKSKGSKKRKNAVRRGNHAGQGTCSECGASGTDLWEASDKSADDGLYCGACWKAYNCQKN

- binding [4]: binds
B2: TUT3 two-hybrid fusion (enzyme, UniProt Q6B9Y8 1-889)
chain: MIFFFKKRYHVFLKAPSIRLMPCSFFFFRSFIKVIFIIRCIFFSSLSGDSCPTQRSRSTLACMFTSVPVAPTVVPGVVYSSGVHEEWKEAEQKLLDGCLIHSEGDGATKQIKEKLTSRNSQSVRCDLCAKMIESRDEEQIQEHFQVHHAALSLWCREILASKDNLLHYGCIPSGHIVSCGNFVLESAATLDMGRKTFDVIERAFSQMSQVISCFVRNLVLFPFGSCVSCGCWDGVSDADFTAIGLQDMKKGKWPPEDEKKVILRLTAALRKAGFFFGELEPLVRTRVPVVRRVQKVRVPLRSHGEHDTYSVVWSNSKEFSSPPRMLVEAAISSTVERKDSDTVTFHFKDSLKAVKFFCNSAMCGPRDMEVSWKTGSQLPEMFSLDFDLSCRAQGVRNSLFLRKYFQQDPFVRTGYLFLKKWSKLYGINNAKNGYLTSYAMSILWVHFLLENGLVKFVRPADVEPIPDLSQQKMSYLPLLRDDGDGGERPSDVLKSPELTMLRGALGGLIPLFFLYYTRIRWDKVVVTLRVPGGGPPVTPDSLGWVEANEVKCGPLRDRVWYRLCIDDPYEDNFNLGRHLSPDKASFVKVQFMRALASIVAGRPQQLLVDEQKFAEETMPAYVTRLSVQGELRNLRPVTVSALRQLLIDSAGADCVAIYEASHNWETLLDMASTLNNKSKEGDDDAEGVTNNQEGEPPDHVESCEAPRRHLLCSKMHSIDDALLVAGPLGVSDANIPAGLLGVYFLARGRAFRTAEDRDNFLMHAEAVSAARARGCTTREEILERVADAIPSIVRNGTLLDDLLVSGSEENITVQSPVVVETRCAETVQRKKSKGSKKRKNAVRRGNHAGQGTCSECGASGTDLWEASDKSADDGLYCGACWKAYNCQKN

These are yes or no findings as the source states them, for the method shown. Binding calls can cover weak binding; strength is not graded here. Sequences can lack the tags named with a protein. For some assays here: In cells and extracts the contact can be indirect. Each block holds one molecule with its values, some of them ahead of it.
